Structures can show the parent of a compound that is named as a salt. ± gives the standard deviation of the averaged measurements. The list shows a part of the results. Most values lie within the scatter of the assay; repeated measurements hardly agree.
system: A549; assay: surface PD-L1 immunofluorescence intensity relative to IFN-gamma-only control (ratio); higher = more PD-L1 expression; conditions: 10 µM; exposure time 24 h; IFN-gamma 100 ng/mL

Row | SMILES | surface PD-L1 immunofluorescence intensity
1 | Clc1ccc(Nc2nnc(Cc3ccncc3)c3ccccc23)cc1 [Vatalanib] | 1.13
2 | Clc1ccc(Nc2nnc(Cc3ccncc3)c3ccccc23)cc1 [Vatalanib dihydrochloride (PTK787)] | 0.957
3 | Cn1cc(-c2ccc3nnc(Sc4ccc5ncccc5c4)n3n2)cn1 | 0.907
4 | O=C1NC(=O)/C(=C/c2cccc(C(F)(F)F)c2)S1 | 1.03 ± 0.093
5 | COC(=O)c1ccc2c(C(=Nc3ccc(N(C)C(=O)CN4CCN(C)CC4)cc3)c3ccccc3)c(O)[nH]c2c1 [BIBF1120 (Vargatef)] | 1.1
6 | Cc1cc2c(F)c(Oc3ncnn4cc(OC[C@@H](C)O)c(C)c34)ccc2[nH]1 | 0.983 ± 0.02
7 | COc1cc(/C=C/C(=O)CC(=O)/C=C/c2ccc(O)c(OC)c2)ccc1O [Curcumin] | 0.967 ± 0.046
8 | CCCCCCN(CCCCCC)C(=O)Cc1c(-c2ccc(Cl)cc2)[nH]c2ccc(Cl)cc12 | 1.04
9 | O=C1c2cccc3c2[C@H](CCC3)CN1[C@@H]1CN2CCC1CC2 [Palonosetron HCl] | 0.941
10 | NCC[C@H](O)C(=O)N[C@@H]1C[C@H](N)[C@@H](O[C@H]2O[C@H](CN)[C@@H](O)[C@H](O)[C@H]2O)[C@H](O)[C@H]1O[C@H]1O[C@H](CO)[C@@H](O)[C@H](N)[C@H]1O [Amikacin hydrate] | 0.958 ± 0.015
11 | NCC[C@H](O)C(=O)N[C@@H]1C[C@H](N)[C@@H](O[C@H]2O[C@H](CN)[C@@H](O)[C@H](O)[C@H]2O)[C@H](O)[C@H]1O[C@H]1O[C@H](CO)[C@@H](O)[C@H](N)[C@H]1O [Amikacin sulfate] | 0.963
12 | O=C1CCC(N2C(=O)c3ccccc3C2=O)C(=O)N1 (stereo not drawn) [Thalidomide] | 0.915 ± 0.061
13 | CCN(CC)CCNC(=O)COc1ccc(OC)cc1 [Mefexamide hydrochloride] | 1.01
14 | Cc1nc2n(c(=O)c1CCN1CCC(c3noc4cc(F)ccc34)CC1)CCCC2O (stereo not drawn) [Paliperidone (Invega)] | 0.996
15 | CC(=O)OCC1=C(C(=O)O)N2C(=O)[C@@H](NC(=O)Cc3cccs3)[C@H]2SC1 [Cephalothin sodium salt] | 0.884
16 | Clc1ccc(C(Cn2ccnc2)OCc2csc3c(Cl)cccc23)c(Cl)c1 (stereo not drawn) [Sertaconazole nitrate] | 1.03
17 | O=C(Nc1cccc2cccnc12)c1ccc(N2C(=O)[C@@H]3[C@H](C2=O)[C@@H]2C=C[C@H]3C2)cc1 [endo-IWR 1] | 1.02
18 | CC1(C)S[C@@H]2[C@H](NC(=O)Cc3ccccc3)C(=O)N2[C@H]1C(=O)O [Benzylpenicillin sodium] | 1.04
19 | CC1(C)S[C@@H]2[C@H](NC(=O)Cc3ccccc3)C(=O)N2[C@H]1C(=O)O [Benzathine benzylpenicillin] | 1.02

Row | SMILES | surface PD-L1 immunofluorescence intensity
20 | CCCCc1nc(Cl)c(CO)n1Cc1ccc(-c2ccccc2-c2nnn[nH]2)cc1 [Losartan] | 1.06
21 | O=C(O)CCNC(=O)c1ccc(/N=N/c2ccc(O)c(C(=O)O)c2)cc1 [Balsalazide Sodium] | 1.02
22 | C[n+]1ccccc1/C=N/O [Pralidoxime chloride] | 0.922
23 | CCOc1cc(N)c(Cl)cc1C(=O)NCC1CN(Cc2ccc(F)cc2)CCO1 (stereo not drawn) [Mosapride citrate] | 1.01
24 | Cc1cccc(Nc2ccccc2C(=O)O)c1C [Mefenamic acid] | 0.867
25 | CCC(C)n1ncn(-c2ccc(N3CCN(c4ccc(OCC5COC(Cn6cncn6)(c6ccc(Cl)cc6Cl)O5)cc4)CC3)cc2)c1=O (stereo not drawn) [Itraconazole (Sporanox)] | 0.96
26 | CCC(C)n1ncn(-c2ccc(N3CCN(c4ccc(OCC5COC(Cn6cncn6)(c6ccc(Cl)cc6Cl)O5)cc4)CC3)cc2)c1=O (stereo not drawn) [Itraconazole] | 0.981
27 | CN(CCOc1ccc(C[C@H](Nc2ccccc2C(=O)c2ccccc2)C(=O)O)cc1)c1ccccn1 | 0.99
28 | C[C@H]1[C@H](OC(=O)CCC(=O)O)O[C@@H]2O[C@@]3(C)CC[C@H]4[C@H](C)CC[C@@H]1[C@@]24OO3 [Artesunate] | 1.18
29 | O=C1OC(CN2CCOCC2)CN1/N=C/c1ccc([N+](=O)[O-])o1 (stereo not drawn) [Furaltadone hydrochloride] | 1.1
30 | O=C1c2c(O)cc(O)cc2O[C@H](c2cc(O)c(O)c(O)c2)[C@H]1O [Dihydromyricetin (Ampeloptin)] | 1.1
31 | Cc1ccc(-c2c(-c3nn(C)c4ncnc(N5CC[C@H](N6CCCCC6)C5)c34)cnn2C)cc1 | 0.945
32 | CNCCCN1c2ccccc2CCc2ccccc21 [Desipramine hydrochloride] | 1.12
33 | Cn1c(=O)c2c(ncn2CCO)n(C)c1=O [Etofylline] | 0.996
34 | COC(C)(C)CCCC(C)C/C=C/C(C)=C/C(=O)O (stereo not drawn) [Methoprene acid] | 1.08
35 | C[C@@]1(c2cc(-c3cncnc3)c(F)cc2F)CCSC(N)=N1 | 1.12
36 | CC(C)NCC(O)c1cc(O)cc(O)c1 (stereo not drawn) [Metaproterenol sulfate, orciprenaline sulfate] | 0.996
37 | CC(C(=O)Nc1cccc(/N=C/c2c(O)ccc3ccccc23)c1)c1ccccc1 (stereo not drawn) [Salermide] | 1.05
38 | O=[N+]([O-])c1cc2nc(O)c(O)nc2cc1[N+](=O)[O-] | 1.01

Two entries picked at random from those above:
Row | SMILES | surface PD-L1 immunofluorescence intensity
24 | Cc1cccc(Nc2ccccc2C(=O)O)c1C [Mefenamic acid] | 0.867
2 | Clc1ccc(Nc2nnc(Cc3ccncc3)c3ccccc23)cc1 [Vatalanib dihydrochloride (PTK787)] | 0.957
